In patent publication US7091025B2, “Malathion carboxylesterase” (priority 1995, dated 2006):
Like-named read-outs stand apart in the source and are kept apart here.

System: adult female L. cuprina
Type: in vivo
Excerpt: The following organophosphorus compounds were used: diazinon (O,O-diethyl O-2-isopropyl-6-methylpyrimidin-4-yl phosphorothioate, 91%, Mallinckrodt), parathion-methyl (O,O-dimethyl O-4-nitrophenyl phosphorothioate, 97.0%, Bayer), parathion (O,O-diethyl O-4-nitrophenyl phosphorothioate, 99%, Pestanal grade, Riedel-de-Haën), fenthion (O,O-dimethyl O-[3-methyl-4-(methylthio)phenyl]phosphorothioate, 98.8%, Bayer), fenthion-ethyl (O,O-diethyl O-[3-methyl-4-(methylthio)phenyl] phosphorothioate, a gift from Dr. G. Levot), dichlorvos (2,2-dichlorovinyl dimethyl phosphate, 99%, Chem Service), diethyl-dichlorvos (2,2-dichlorovinyl diethyl phosphate, a gift from Dr. J. Desmarchelier), di-isopropyl-dichlorvos (2,2-dichlorovinyl di-isopropyl phosphate, a gift from Dr. J. Desmarchelier), malathion (S-1,2-bis(ethoxycarbonyl)ethyl O,O-dimethyl phosphorodithioate, technical grade, Nufarm), isopropyl malathion (S-1,2-bis(ethoxycarbonyl)ethyl O,O-di-isopropyl phosphorodithioate, a gift from Dr. J. Desmarchelier).
The toxicity of OPs in adult female L. cuprina was determined 3 or 4 days post-eclosion by application of OPs to the scutellum in 0.7 μl dioctylphthalate (Busvine, J. R., Bell, J. D. and Guneidy, A. M., Bulletin of Entomological Research 54: 589, 1963;; Townsend, M. G. and Busvine, J. R., Entomology Experimental and Applied 12: 243, 1969). Each OP was applied to at least 20 flies at each of at least 5 different concentrations, spanning the dose causing 50% mortality (LD50). Control groups were treated with solvent but no OP. Mortality was determined 24 hours later. Data were fitted to the probit curve using the Probit Or LOgit (POLO-PC) computer program (LeOra Software, 1987).

SMILES | slope and standard error of the probit regression line (strain LS2) | slope and standard error of the probit regression line (strain Llandillo 103) | slope and standard error of the probit regression line (strain Woodside 5.2)
CCOP(=S)(OCC)Oc1cc(C)nc(C(C)C)n1 [Diazinon, O,O-diethyl O-2-isopropyl-6-methylpyrimidin-4-yl phosphorothioate] | 3.5 ± 0.5 | 4.9 ± 0.7 | 5.1 ± 0.6
COP(=O)(OC)OC=C(Cl)Cl [Dichlorvos, 2,2-dichlorovinyl dimethyl phosphate] | 8.2 ± 1.1 | 5.1 ± 0.8 | 6.3 ± 1.0
CCOP(=O)(OC=C(Cl)Cl)OCC [Ethyl Dichlorvos, 2,2-dichlorovinyl diethyl phosphate] | 5.0 ± 0.8 | 54 ± 14 | 4.9 ± 1.2
COP(=S)(OC)Oc1ccc(SC)c(C)c1 [Fenthion, O,O-dimethyl O-[3-methyl-4-(methylthio)phenyl]phosphorothioate] | 5.2 ± 0.7 | 8.7 ± 1.5 | 3.9 ± 0.7
CCOP(=S)(OCC)Oc1ccc(SC)c(C)c1 [Fenthion-ethyl, O,O-diethyl O-[3-methyl-4-(methylthio)phenyl] phosphorothioate] | 7.4 ± 1.1 | 8.7 ± 1.5 | 13.4 ± 2.6
CC(C)OP(=O)(OC=C(Cl)Cl)OC(C)C [Isopropyl Dichlorvos, 2,2-dichlorovinyl di-isopropyl phosphate] | 4.1 ± 0.6 | 4.1 ± 0.5 | 8.1 ± 1.4
CCOC(=O)CC(SP(=S)(OC(C)C)OC(C)C)C(=O)OCC (centres unmarked) [Isopropyl Malathion, S-1,2-bis(ethoxycarbonyl)ethyl O,O-di-isopropyl phosphorodithioate] | 6.3 ± 0.7 | 8.5 ± 1.7 | 10.1 ± 1.8
CCOC(=O)CC(SP(=S)(OC)OC)C(=O)OCC (centres unmarked) [Malathion, S-1,2-bis(ethoxycarbonyl)ethyl O,O-dimethyl phosphorodithioate] | 6.4 ± 1.2 | 4.2 ± 0.9 | 
CCOP(=S)(OCC)Oc1ccc([N+](=O)[O-])cc1 [Parathion, O,O-diethyl O-4-nitrophenyl phosphorothioate] | 9.2 ± 1.1 | 6.8 ± 1.2 | 13.3 ± 2.3
COP(=S)(OC)Oc1ccc([N+](=O)[O-])cc1 [Parathion-methyl, O,O-dimethyl O-4-nitrophenyl phosphorothioate] | 6.5 ± 0.8 | 3.4 ± 0.5 | 9.7 ± 1.5
